Source: the supplement of paper PMC10849652
The other results are listed elsewhere or left out.

The chains behind the UniProt entries cited, without tags or fusion partners. Where a name states a change or a piece, a line headed by the entry shows the natural chain unless it says otherwise.
UniProt Q8WU58: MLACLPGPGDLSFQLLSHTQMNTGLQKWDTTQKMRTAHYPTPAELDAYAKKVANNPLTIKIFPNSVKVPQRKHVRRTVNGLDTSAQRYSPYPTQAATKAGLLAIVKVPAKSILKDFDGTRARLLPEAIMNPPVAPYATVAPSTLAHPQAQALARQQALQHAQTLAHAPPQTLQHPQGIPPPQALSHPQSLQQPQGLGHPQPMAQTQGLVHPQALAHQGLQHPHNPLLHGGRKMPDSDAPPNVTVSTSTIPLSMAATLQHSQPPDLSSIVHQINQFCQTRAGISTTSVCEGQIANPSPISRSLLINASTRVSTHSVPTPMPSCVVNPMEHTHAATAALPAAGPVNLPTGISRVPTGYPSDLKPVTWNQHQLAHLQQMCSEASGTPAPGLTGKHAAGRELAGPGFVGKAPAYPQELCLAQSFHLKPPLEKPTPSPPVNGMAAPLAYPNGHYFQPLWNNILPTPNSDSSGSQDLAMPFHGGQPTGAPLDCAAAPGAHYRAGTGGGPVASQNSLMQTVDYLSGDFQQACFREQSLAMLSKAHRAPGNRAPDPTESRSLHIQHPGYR
UniProt Q8IXS8: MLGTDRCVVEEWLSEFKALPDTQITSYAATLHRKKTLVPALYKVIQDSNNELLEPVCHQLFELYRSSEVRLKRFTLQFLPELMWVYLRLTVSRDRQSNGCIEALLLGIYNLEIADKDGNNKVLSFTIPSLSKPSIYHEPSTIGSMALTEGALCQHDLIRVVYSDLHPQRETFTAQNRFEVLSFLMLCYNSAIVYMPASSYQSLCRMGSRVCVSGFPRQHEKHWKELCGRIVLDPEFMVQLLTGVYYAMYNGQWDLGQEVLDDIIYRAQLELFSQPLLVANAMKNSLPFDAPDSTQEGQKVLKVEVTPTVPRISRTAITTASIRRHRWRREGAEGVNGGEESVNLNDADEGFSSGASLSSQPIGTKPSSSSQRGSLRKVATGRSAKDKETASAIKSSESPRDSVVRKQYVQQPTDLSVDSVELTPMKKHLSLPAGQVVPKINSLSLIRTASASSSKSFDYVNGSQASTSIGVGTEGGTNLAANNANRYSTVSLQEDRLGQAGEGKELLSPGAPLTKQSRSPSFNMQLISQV
UniProt Q6IPR1: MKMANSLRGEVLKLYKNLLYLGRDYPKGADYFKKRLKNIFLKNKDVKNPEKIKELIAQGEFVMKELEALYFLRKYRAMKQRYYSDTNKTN
UniProt Q96PZ2, whole entry, looked up: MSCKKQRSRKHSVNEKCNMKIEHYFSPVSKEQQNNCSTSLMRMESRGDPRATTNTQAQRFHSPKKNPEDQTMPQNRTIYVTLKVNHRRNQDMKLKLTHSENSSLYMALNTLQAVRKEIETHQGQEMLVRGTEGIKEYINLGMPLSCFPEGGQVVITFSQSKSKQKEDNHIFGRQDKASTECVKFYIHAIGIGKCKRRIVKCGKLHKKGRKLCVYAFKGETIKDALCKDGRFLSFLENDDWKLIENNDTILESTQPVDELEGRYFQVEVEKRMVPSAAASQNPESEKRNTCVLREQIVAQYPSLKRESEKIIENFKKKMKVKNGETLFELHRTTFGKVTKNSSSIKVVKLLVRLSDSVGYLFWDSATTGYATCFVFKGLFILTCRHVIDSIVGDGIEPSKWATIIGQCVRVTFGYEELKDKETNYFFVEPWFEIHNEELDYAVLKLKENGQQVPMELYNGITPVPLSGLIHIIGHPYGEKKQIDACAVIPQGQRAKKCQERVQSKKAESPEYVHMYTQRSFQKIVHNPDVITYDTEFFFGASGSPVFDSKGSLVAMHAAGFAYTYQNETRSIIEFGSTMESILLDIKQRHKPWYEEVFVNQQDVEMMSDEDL
UniProt Q9NVH0: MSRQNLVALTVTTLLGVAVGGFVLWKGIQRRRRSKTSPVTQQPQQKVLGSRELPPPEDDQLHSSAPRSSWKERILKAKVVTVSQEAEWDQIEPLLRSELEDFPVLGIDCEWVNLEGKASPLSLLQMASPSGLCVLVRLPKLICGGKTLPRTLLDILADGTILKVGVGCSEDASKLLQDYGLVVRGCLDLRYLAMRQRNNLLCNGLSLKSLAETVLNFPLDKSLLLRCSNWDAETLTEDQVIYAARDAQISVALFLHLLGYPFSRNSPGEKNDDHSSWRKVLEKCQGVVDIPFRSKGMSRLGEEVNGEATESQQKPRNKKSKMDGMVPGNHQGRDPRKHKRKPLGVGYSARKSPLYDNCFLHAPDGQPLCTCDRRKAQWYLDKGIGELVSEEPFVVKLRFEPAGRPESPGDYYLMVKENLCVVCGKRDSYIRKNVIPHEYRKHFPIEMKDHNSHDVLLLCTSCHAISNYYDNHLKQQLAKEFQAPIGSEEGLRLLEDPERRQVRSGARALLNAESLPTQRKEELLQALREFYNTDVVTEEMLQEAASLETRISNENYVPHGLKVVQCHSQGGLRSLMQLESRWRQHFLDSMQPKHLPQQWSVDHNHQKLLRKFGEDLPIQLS
UniProt Q8N0U4: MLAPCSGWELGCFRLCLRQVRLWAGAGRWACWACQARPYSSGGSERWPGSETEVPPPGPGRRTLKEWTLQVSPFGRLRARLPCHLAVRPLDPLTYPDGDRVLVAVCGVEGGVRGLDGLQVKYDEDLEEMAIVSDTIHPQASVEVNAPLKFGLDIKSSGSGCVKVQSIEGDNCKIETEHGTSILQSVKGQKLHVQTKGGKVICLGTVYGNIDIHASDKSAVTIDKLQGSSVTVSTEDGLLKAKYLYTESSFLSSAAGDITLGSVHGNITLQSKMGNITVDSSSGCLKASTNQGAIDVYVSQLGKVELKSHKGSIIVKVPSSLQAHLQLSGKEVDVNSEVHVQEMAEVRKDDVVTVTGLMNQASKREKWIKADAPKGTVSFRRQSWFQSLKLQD
UniProt Q9Y624, whole entry, looked up, stated change not applied: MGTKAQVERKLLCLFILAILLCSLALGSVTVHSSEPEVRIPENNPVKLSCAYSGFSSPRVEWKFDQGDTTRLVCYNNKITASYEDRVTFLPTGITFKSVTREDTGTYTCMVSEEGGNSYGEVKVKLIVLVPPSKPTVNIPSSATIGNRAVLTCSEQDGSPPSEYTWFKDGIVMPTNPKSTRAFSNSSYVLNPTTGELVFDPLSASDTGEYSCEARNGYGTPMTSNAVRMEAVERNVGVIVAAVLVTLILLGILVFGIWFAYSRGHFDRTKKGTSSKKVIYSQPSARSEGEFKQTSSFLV
UniProt Q9Y421: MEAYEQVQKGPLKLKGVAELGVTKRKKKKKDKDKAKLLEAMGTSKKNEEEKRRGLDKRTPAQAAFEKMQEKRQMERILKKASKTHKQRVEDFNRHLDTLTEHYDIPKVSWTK
UniProt Q8IWE2: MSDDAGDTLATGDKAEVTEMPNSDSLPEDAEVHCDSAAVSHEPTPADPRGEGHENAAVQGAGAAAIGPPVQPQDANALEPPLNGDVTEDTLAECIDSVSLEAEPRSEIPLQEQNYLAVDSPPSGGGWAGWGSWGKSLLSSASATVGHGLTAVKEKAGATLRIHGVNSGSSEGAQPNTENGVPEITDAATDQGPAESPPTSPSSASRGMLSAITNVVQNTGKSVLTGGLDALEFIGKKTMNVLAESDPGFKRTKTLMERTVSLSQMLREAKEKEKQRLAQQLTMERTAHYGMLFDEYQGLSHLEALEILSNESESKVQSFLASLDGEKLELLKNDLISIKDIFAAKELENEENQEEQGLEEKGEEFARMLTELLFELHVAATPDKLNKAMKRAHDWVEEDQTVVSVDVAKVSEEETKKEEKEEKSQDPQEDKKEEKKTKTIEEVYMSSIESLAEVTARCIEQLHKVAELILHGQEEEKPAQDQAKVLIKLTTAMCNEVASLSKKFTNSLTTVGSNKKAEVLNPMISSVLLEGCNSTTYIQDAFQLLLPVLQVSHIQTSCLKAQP
UniProt Q5BKY9: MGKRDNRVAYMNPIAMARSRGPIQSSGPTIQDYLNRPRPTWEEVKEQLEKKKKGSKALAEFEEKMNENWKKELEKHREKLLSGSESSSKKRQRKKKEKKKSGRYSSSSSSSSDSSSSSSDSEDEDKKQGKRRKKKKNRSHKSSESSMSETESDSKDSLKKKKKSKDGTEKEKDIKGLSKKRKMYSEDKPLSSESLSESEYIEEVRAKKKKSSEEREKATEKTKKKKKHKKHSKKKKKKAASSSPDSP
UniProt Q86YB8: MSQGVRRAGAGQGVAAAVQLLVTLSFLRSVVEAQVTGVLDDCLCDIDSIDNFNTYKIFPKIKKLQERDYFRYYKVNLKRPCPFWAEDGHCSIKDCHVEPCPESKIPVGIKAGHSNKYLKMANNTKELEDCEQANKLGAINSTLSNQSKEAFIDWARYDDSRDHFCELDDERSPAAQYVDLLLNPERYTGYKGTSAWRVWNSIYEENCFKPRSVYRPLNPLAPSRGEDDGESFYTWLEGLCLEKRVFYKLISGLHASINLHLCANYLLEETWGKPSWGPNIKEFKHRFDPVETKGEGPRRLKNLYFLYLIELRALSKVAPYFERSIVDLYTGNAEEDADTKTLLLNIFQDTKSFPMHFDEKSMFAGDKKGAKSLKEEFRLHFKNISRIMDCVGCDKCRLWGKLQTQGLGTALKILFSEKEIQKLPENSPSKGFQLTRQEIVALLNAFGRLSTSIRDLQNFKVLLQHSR
UniProt Q9NVQ4: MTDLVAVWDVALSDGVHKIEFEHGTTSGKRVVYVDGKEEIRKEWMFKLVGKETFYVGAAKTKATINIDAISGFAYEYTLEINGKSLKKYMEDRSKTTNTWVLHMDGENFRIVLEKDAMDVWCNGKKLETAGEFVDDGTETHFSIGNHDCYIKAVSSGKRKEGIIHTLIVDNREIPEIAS
UniProt Q8N128: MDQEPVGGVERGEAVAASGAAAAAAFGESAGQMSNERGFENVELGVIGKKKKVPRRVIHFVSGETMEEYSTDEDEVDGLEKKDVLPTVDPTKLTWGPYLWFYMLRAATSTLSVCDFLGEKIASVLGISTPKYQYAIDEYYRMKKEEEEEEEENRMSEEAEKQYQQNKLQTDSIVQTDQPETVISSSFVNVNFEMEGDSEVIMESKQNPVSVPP
UniProt O43909: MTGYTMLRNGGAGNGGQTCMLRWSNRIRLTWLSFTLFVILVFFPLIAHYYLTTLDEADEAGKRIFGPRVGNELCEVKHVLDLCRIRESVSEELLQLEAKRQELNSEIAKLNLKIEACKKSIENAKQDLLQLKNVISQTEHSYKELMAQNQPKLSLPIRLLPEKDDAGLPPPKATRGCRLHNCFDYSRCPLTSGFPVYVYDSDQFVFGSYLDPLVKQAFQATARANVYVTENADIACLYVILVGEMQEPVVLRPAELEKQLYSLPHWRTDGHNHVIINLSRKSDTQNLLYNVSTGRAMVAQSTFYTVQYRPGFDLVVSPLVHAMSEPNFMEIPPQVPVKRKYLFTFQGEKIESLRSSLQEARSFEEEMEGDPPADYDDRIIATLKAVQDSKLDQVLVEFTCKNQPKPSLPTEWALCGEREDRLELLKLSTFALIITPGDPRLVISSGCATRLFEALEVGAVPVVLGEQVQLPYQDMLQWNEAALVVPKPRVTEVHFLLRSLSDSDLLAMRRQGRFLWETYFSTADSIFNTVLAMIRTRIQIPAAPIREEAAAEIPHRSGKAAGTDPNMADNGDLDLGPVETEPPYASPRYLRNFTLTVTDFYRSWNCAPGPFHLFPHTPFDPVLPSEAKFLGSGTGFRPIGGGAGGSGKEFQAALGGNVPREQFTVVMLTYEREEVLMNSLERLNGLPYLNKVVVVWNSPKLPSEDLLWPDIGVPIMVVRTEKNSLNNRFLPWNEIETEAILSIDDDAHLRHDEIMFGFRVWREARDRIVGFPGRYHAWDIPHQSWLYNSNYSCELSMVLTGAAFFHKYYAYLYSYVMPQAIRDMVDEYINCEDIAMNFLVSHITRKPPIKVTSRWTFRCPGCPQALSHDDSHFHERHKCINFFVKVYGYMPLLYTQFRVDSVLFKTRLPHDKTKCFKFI
UniProt Q9BYI3: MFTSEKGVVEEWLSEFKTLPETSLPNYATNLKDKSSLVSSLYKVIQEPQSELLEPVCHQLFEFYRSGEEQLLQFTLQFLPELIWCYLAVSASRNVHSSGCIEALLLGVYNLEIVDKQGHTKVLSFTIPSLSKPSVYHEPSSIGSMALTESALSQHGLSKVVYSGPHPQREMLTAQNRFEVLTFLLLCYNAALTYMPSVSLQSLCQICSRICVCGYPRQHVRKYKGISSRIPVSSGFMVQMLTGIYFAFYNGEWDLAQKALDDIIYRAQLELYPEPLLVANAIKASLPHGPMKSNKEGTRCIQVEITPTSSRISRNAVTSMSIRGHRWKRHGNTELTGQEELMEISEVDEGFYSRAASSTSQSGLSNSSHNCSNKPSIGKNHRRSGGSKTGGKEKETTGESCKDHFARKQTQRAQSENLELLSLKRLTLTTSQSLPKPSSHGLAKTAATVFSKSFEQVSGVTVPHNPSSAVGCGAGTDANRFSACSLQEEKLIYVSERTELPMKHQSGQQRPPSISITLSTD

Tests used:
Assay in all cases: log2 fold change, soluble protein after heating vs DMSO (PISA); higher = thermal stabilisation; K562 lysate, 10 uM; active = over 0.2 and 3.5 SD of the protein, either way, in both replicates (recomputed)
erlotinib = compound: C#Cc1cccc(Nc2ncnc3cc(OCCOC)c(OCCOC)cc23)c1 [erlotinib]
Method in brief: (§1)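 Quantification was by TMTpro 16plex LC-MS/MS with equalised channel sums, applied to the supernatant after 21,000xg for 90 min. Samples were crude K562 extract at 1 mg/mL protein in PBS pH 7.4 with 1 mM MgCl2, treated with 10 μM compound for 30 min, heated for 3 min across 48°C-58°C, pooled and brought to 0.5% NP-40 at 4°C. Values are log-two fold changes in thermal stability relative to solvent controls, from duplicates.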

[1] = compound: C/C(=N\NC(=O)C1=CC(=CC=C1)S(=O)(=O)N2CCOCC2)/C3=C(C=CC(=C3)Cl)O
Method in brief: as §1

[2] = compound: C1=CC(=CC=C1C2=NC3=C(N2)C=C(C=C3)C(=O)N)OC4=CC=C(C=C4)Cl
Method in brief: as §1

[3] = compound: C1=CC2=C(C=CC(=C2)/C=C\3/C(=O)NC(=NCC4=CC=CS4)S3)N=C1
Method in brief: as §1

[4] = compound: C1=CC2=NC=CN=C2C=C1/C=C/3\C(=O)NC(=O)S3
Method in brief: as §1

[5] = compound: C1=CC=C(C=C1)C2=NC(=C(N2)C3=CC=NC=C3)C4=CC(=C(C=C4)Cl)O
Method in brief: as §1

[6] = compound: C1=CC=C2C(=C1)C3=NNC4=CC=CC(=C43)C2=O
Method in brief: as §1

[7] = compound: C1CCN(C1)C(=O)NC2=CC=CC(=C2)NC3=NC=C(C(=N3)NCCC4=CN=CN4)Br
Method in brief: as §1

[8] = compound: C1CN(CCC1(CC2=CC=C(C=C2)Cl)N)C3=NC=NC4=C3C=CN4
Method in brief: as §1

IRAK-1-4 Inhibitor I = compound: C1COCCN1CCN2C3=CC=CC=C3N=C2NC(=O)C4=CC(=CC=C4)[N+](=O)[O-] [IRAK-1-4 Inhibitor I]
Method in brief: as §1

ibrutinib = compound: C=CC(=O)N1CCC[C@@H](n2nc(-c3ccc(Oc4ccccc4)cc3)c3c(N)ncnc32)C1 [ibrutinib]
Method in brief: as §1

ralimetinib = compound: CC(C)(C)Cn1c(N)nc2ccc(-c3[nH]c(C(C)(C)C)nc3-c3ccc(F)cc3)nc21 [ralimetinib]
Method in brief: as §1

[9] = compound: CC(C)(O)CC(=O)NCCn1ccc2ncnc(Nc3ccc(Oc4cccc(C(F)(F)F)c4)c(Cl)c3)c21
Method in brief: as §1

[10] = compound: CC(C)C1=C2N=C(C=C(N2N=C1)NCC3=CC=CC=C3)NCCCCCCN
Method in brief: as §1

[11] = compound: CC1=C(C(CC(=O)N1)C2=CC=C(C=C2)C(F)(F)F)C(=O)NC3=C(C=C4C(=C3)C=NN4)F
Method in brief: as §1

[12] = compound: CC1=C(C2=C(C=C1)C(=O)C3=CC=CC=C3N2CCCN)C
Method in brief: as §1

[13] = compound: CC1=C(C=C(C=C1)NC(=O)C2=CC(=CC=C2)C(C)(C)C#N)NC3=CC4=C(C=C3)N=CN(C4=O)C
Method in brief: as §1

[14] = compound: CC1=C(C=C(C=C1)NC(=O)C2=CC(=CC=C2)N(C)C)NC(=O)C3=CC=C(C=C3)O
Method in brief: as §1

[15] = compound: CC(=O)c1cnc2ccc(-c3cc(Cl)c(O)c(Cl)c3)nc2c1N[C@H]1CC[C@H](CN(C)C)CC1
Method in brief: as §1

[16] = compound: CC1=CC=C(C=C1)SC2=C3C=C(SC3=CN=C2)C(=O)N
Method in brief: as §1

Measured: log2 fold change

FAM222B (UniProt Q8WU58)
inactive: erlotinib -0.013 | [1] -0.016 | [2] 0.066 | [3] 0.254 | [4] 0.069 | [5] -0.116 | [6] -0.354 | [7] -0.036 | [8] 0.158 | IRAK-1-4 Inhibitor I 0.043 | ibrutinib -0.002 | ralimetinib -0.004 | [9] -0.021 | [10] 0.018 | [11] 0.044 | [12] -0.007 | [13] -0.014 | [14] -0.031

FAM126B (UniProt Q8IXS8)
inactive: erlotinib 0.084 | [1] -0.045 | [2] 0.187 | [3] 0.075 | [4] 0.042 | [5] -0.054 | [6] -0.017 | [7] -0.028 | [8] 0.113 | IRAK-1-4 Inhibitor I 0.033 | ibrutinib -0.067 | [15] 0.043 | ralimetinib 0.11 | [9] -0.034 | [10] 0.126 | [12] -0.074 | [14] -0.089 | [16] -0.076

FAM136A (UniProt Q96C01)
inactive: erlotinib 0.003 | [1] 0.039 | [2] 0.03 | [3] 0.018 | [4] -0.009 | [5] 0.001 | [6] -0.022 | [7] -0.007 | [8] 0.063 | IRAK-1-4 Inhibitor I -0.002 | ibrutinib 0.169 | [15] -0.014 | ralimetinib -0.003 | [9] -0.018 | [10] -0.015 | [11] 0.011 | [12] 0.001 | [13] -0.032 | [14] -0.013 | [16] 0.011

ETFRF1 (UniProt Q6IPR1)
inactive: erlotinib -0.032 | [1] -0.008 | [2] -0.048 | [3] 0.083 | [4] -0.064 | [5] -0.038 | [6] -0.063 | IRAK-1-4 Inhibitor I -0.002 | ibrutinib 0.062 | [15] 0.028 | ralimetinib -0.005 | [9] -0.044 | [10] -0.006 | [11] 0.049 | [12] -0.018 | [13] -0.071 | [14] 0.136 | [16] -0.02

FAM111A (UniProt Q96PZ2)
inactive: erlotinib -0.025 | [1] -0.04 | [2] -0.01 | [3] 0.002 | [5] -0.088 | [6] -0.088 | [7] 0.046 | [8] 0.022 | IRAK-1-4 Inhibitor I -0.088 | [15] 0.171 | ralimetinib 0.116 | [9] 0.083 | [10] 0.125 | [12] -0.106 | [13] -0.093 | [14] 0.022 | [16] -0.244

EXD2 (UniProt Q9NVH0)
inactive: erlotinib 0.189 | [1] 0.035 | [2] -0.125 | [3] -0.108 | [5] 0.042 | [6] 0.096 | IRAK-1-4 Inhibitor I 0.036 | ralimetinib 0.11 | [9] -0.185 | [10] 0.003 | [12] -0.023 | [13] 0.013 | [14] 0.084

FAM185A (UniProt Q8N0U4)
inactive: erlotinib 0.2 | [1] -0.276 | [2] 0.055 | [3] -0.448 | [4] 0.016 | [5] -0.002 | [6] 0.04 | IRAK-1-4 Inhibitor I 0.025 | ibrutinib 0.016 | [15] 0.02 | ralimetinib 0.018 | [9] -0.083 | [10] -0.129 | [12] -0.069 | [13] 0.047 | [14] -0.052 | [16] 0.044

F11R (UniProt Q9Y624)
inactive: erlotinib 0.007 | [1] -0.097 | [2] 0.035 | [3] -0.013 | [4] -0.02 | [5] -0.001 | [6] 0.034 | [7] 0.007 | [8] 0.014 | IRAK-1-4 Inhibitor I 0.021 | ibrutinib 0.033 | [15] -0.005 | ralimetinib -0.002 | [9] -0.057 | [10] -0.012 | [11] -0.008 | [12] -0.006 | [13] 0.025 | [14] -0.011 | [16] -0.043

FAM32A (UniProt Q9Y421)
inactive: erlotinib 0.013 | [1] -0.118 | [2] 0.026 | [3] 0.002 | [4] -0.101 | [5] 0.039 | [6] -0.009 | [7] -0.067 | [8] 0.005 | IRAK-1-4 Inhibitor I -0.047 | ibrutinib 0.109 | ralimetinib -0.035 | [9] 0.063 | [10] 0.012 | [12] -0.027 | [13] 0.069 | [14] 0.027

FAM114A1 (UniProt Q8IWE2)
inactive: erlotinib 0.032 | [1] -0.294 | [2] -0.069 | [3] -0.075 | [4] -0.178 | [5] -0.15 | [6] -0.103 | [7] -0.037 | [8] -0.074 | IRAK-1-4 Inhibitor I 0.148 | ibrutinib 0.048 | [15] -0.056 | ralimetinib 0.179 | [9] 0.106 | [10] 0.033 | [12] 0.068 | [14] -0.188 | [16] 0.008

Fetched one by one from the list above, 2 records:
F11R (UniProt Q9Y624)
inactive: erlotinib 0.007 | [1] -0.097 | [2] 0.035 | [3] -0.013 | [4] -0.02 | [5] -0.001 | [6] 0.034 | [7] 0.007 | [8] 0.014 | IRAK-1-4 Inhibitor I 0.021 | ibrutinib 0.033 | [15] -0.005 | ralimetinib -0.002 | [9] -0.057 | [10] -0.012 | [11] -0.008 | [12] -0.006 | [13] 0.025 | [14] -0.011 | [16] -0.043

FAM185A (UniProt Q8N0U4)
inactive: erlotinib 0.2 | [1] -0.276 | [2] 0.055 | [3] -0.448 | [4] 0.016 | [5] -0.002 | [6] 0.04 | IRAK-1-4 Inhibitor I 0.025 | ibrutinib 0.016 | [15] 0.02 | ralimetinib 0.018 | [9] -0.083 | [10] -0.129 | [12] -0.069 | [13] 0.047 | [14] -0.052 | [16] 0.044

Following part.

FAM133B (UniProt Q5BKY9)
inactive: erlotinib -0.17 | [1] -0.155 | [2] -0.117 | [3] -0.008 | [4] -0.112 | [5] -0.035 | [6] 0.102 | [7] 0.118 | [8] -0.053 | IRAK-1-4 Inhibitor I -0.039 | ibrutinib -0.079 | [15] 0.022 | ralimetinib 0.016 | [9] 0.035 | [10] -0.124 | [11] -0.008 | [12] -0.018 | [13] -0.042 | [14] -0.018 | [16] -0.042

ERO1B (UniProt Q86YB8)
inactive: erlotinib -0.097 | [1] -0.115 | [2] 0.152 | [3] 0.032 | [4] 0.037 | [5] -0.055 | [6] -0.006 | [7] -0.046 | [8] 0.034 | IRAK-1-4 Inhibitor I -0.003 | ibrutinib -0.03 | [15] 0.027 | ralimetinib -0.043 | [9] -0.017 | [10] 0.063 | [11] -0.161 | [12] -0.087 | [13] -0.084 | [14] 0.022 | [16] -0.014

FAIM isoform 2 (UniProt Q9NVQ4)
inactive: erlotinib 0.148 | [1] 0.019 | [2] -0.104 | [3] 0.044 | [4] -0.068 | [5] -0.01 | [6] -0.115 | [7] 0.045 | [8] -0.026 | IRAK-1-4 Inhibitor I 0.07 | ibrutinib -0.027 | [15] 0.028 | ralimetinib -0.042 | [9] -0.071 | [10] -0.064 | [11] -0.132 | [12] 0.124 | [13] 0.076 | [14] 0.001 | [16] 0.116

FAM177A1 isoform 2 (UniProt Q8N128)
inactive: erlotinib 0.038 | [1] 0.106 | [2] -0.028 | [3] 0.045 | [4] 0.015 | [5] 0.021 | [6] -0.009 | IRAK-1-4 Inhibitor I -0.057 | ibrutinib 0.014 | [15] -0.022 | ralimetinib 0.03 | [9] -0.1 | [10] 0.008 | [11] 0.049 | [12] -0.017 | [13] 0.035 | [14] 0.061 | [16] -0.052

ESYT2 (UniProt H7BXI1)
inactive: erlotinib -0.056 | [1] 0.037 | [2] -0.017 | [3] 0.042 | [4] -0.025 | [5] -0.022 | [6] -0.076 | [7] -0.005 | [8] -0.008 | IRAK-1-4 Inhibitor I 0.019 | ibrutinib 0.035 | [15] -0.022 | ralimetinib 0.003 | [9] -0.039 | [10] -0.04 | [11] 0.046 | [12] 0.05 | [13] 0.015 | [14] -0.025 | [16] -0.044

EXTL3 (UniProt O43909)
inactive: erlotinib 0.053 | [1] -0.258 | [2] -0.071 | [3] 0.217 | [5] -0.022 | [6] -0.197 | IRAK-1-4 Inhibitor I -0.02 | [15] 0.031 | ralimetinib 0.007 | [9] 0.079 | [10] -0.068 | [12] -0.034 | [13] -0.026 | [14] 0.02 | [16] 0.095

FAM126A (UniProt Q9BYI3)
inactive: erlotinib 0.017 | [1] -0.264 | [2] -0.047 | [3] 0.176 | [4] -0.037 | [5] -0.018 | [6] -0.251 | IRAK-1-4 Inhibitor I 0.082 | ibrutinib 0.038 | [15] 0.164 | ralimetinib 0.072 | [9] 0.006 | [10] 0.045 | [11] 0.182 | [12] -0.067 | [13] 0.079 | [14] 0.029 | [16] -0.022
